In PubChem BioAssay AID2685 (National Center for Advancing Translational Sciences (NCATS), 2010):
This is one part of the list. The main result of the screen is listed elsewhere. These columns were measured beside it and carry no call. Most of these compounds were active or inconclusive in the main read-out, so they are no random draw. Potencies come from curve fits of mixed quality, noted in brackets.

Assay: qHTS Assay for Lipid Storage Modulators in Drosophila S3 Cells;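 as to cell number change: cells counted by Cell Tracker Red CMTPX staining in the red channel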
Details: BODIPY lipid droplet fluorescence, 18-24 h; for cell number change: measured here: cell count max response, cells fed with added oleic acid
Outline: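 Drosophila S3 cells got compounds at several concentrations plus oleic acid (400 uM solution). Laser-scanning cytometry with 488 nm excitation read lipid droplets at 500-530 nm and cells at 575-640 nm. Percent activity was relative to 20 uM Triacsin C.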

[1] = measured here: lipid fluorescence (Fed channel) AC50, cells fed with added oleic acid
[2] = measured here: cell number channel AC50, cells fed with added oleic acid

| Structure (SMILES) | cell number change | AC50 [1] | AC50 [2] |
| --- | --- | --- | --- |
| CC1CCC2(CC1)NC(=O)N(CC(=O)NCCc1ccc(F)cc1)C2=O (centres undefined) | -2% | 0.411 µM [rising, full curve, poor fit] |  |
| Cc1oc(-c2ccccc2F)nc1CS(=O)(=O)CC(=O)N1CCc2ccccc21 | 36.6% | 5.8 µM [rising, full curve] | 3.66 µM [rising, full curve] |
| FC(F)(F)c1ccc(C2NCCc3sccc32)cc1 (centres undefined) | -51.5% | 29.1 µM [falling, single point] | 29.1 µM [falling, single point] |
| COc1ccc(-c2n[nH]c(=S)n2-c2ccc3c(c2)OCCO3)cc1 | -33.3% |  | 0.00461 µM [falling, full curve, poor fit] |
| CCCNC(=O)CCn1cc(-c2ccc(OC)cc2)nc1-c1ccncc1 | 7.19% | 1.03 µM [rising, partial curve, poor fit] |  |
| COc1ccc(C)cc1NC(=O)c1cc2c(s1)CCC2 | 10.4% |  |  |
| CCN(CC)S(=O)(=O)c1cc(NC(=O)C(C)Nc2ccccc2N2CCOCC2)ccc1C (centres undefined) | -1.22% | 29.1 µM [rising, partial curve, poor fit] | 0.0259 µM [rising, full curve, poor fit] |
| O=C(c1ccccc1O)N1N=C(C(F)(F)F)CC1(O)c1ccc([N+](=O)[O-])cc1 (centres undefined) | -23.9% |  |  |
| CN(C)Cc1ccccc1Sc1cccc2ccccc12 | -71.1% |  | 0.00461 µM [falling, full curve, poor fit] |
| CCN(CC)c1ccc(/C=C2/C(=O)N(c3ccc([N+](=O)[O-])cc3)N=C2N2CCOCC2)cc1 | 0.141% |  |  |
| CC(Cl)C(=O)Nc1cc(C(C)(C)C)nn1-c1ccccc1 (centres undefined) |  | 0.146 µM [rising, single point] |  |
| COc1ccc(/C=N\NC(=O)CNC(=O)C2COc3ccccc3O2)cc1[N+](=O)[O-] (centres undefined) | -3.63% | 7.31 µM [falling, single point] |  |
| CN(C)c1ccc(CNC(=O)c2cc(S(=O)(=O)N3CCOCC3)cn2C)cc1 | 8.36% | 29.1 µM [rising, single point] | 0.13 µM [rising, full curve, poor fit] |
| O=C(O)CCN1CCN(S(=O)(=O)c2ccc3ccccc3c2)CC1 | 9.94% | 13 µM [rising, partial curve] |  |
| Cc1ccc2nc(-c3ccccc3)c(CN3CCN(c4ccccc4F)CC3)n2c1 | -11% |  |  |
| COc1cccc(/C(O)=C2/C(=O)C(=O)N(CCN(C)C)C2c2ccc(Br)cc2)c1 (centres undefined) |  | 2.06 µM [falling, partial curve] |  |
| CC(C)Oc1ccc(C(=O)Nc2ccc(N3CCCCC3)cc2)cc1 | 4.31% |  |  |
| CCOCCn1c(COc2ccc(C)cc2)nc2ccccc21 | -15.9% | 7.31 µM [rising, partial curve] |  |
| O=C(Nc1ncn[nH]1)c1ccccc1Br | -29.9% | 0.517 µM [falling, full curve] |  |

| Structure (SMILES) | cell number change | AC50 [1] | AC50 [2] |
| --- | --- | --- | --- |
| COC(=O)c1ccccc1OCCCN(C)C | -4% |  |  |
| Cc1csc2nc(CCNS(=O)(=O)c3ccc4c(c3)OCCO4)cn12 | 3.55% | 11.6 µM [rising, single point] |  |
| BrC(=C\c1ccccc1)/C=N/N1CCN(Cc2ccccc2)CC1 | 113% | 5.17 µM [rising, single point] | 25.9 µM [rising, single point] |
| COc1ccc(NC(=O)C2C3C=CC4(CN(Cc5cccnc5)C(=O)C24)O3)c(OC)c1 (centres undefined) | 45.2% | 11.6 µM [rising, partial curve] | 0.731 µM [rising, partial curve, poor fit] |
| CCC(=O)N1CCc2cc(S(=O)(=O)NCCC(=O)N3CCN(Cc4ccccc4)CC3)ccc21 | -7.73% | 2.31 µM [rising, partial curve] |  |
| COc1ccc(OCC(=O)Nc2c(C(=O)N3CCN(C)CC3)oc3ccccc23)cc1 | -18.8% | 11.6 µM [rising, partial curve] |  |
| O=c1[nH][nH]c(C(F)(F)F)c1C=NCc1ccccc1Cl | -0.724% |  |  |
| CC(C)CCN1CC(C(=O)N2CCN(c3ccc(F)cc3)CC2)CC1=O (centres undefined) | 178% |  | 29.1 µM [rising, single point] |
| CCCCN(CC)C(=O)c1cc2cc3ccc(Cl)cc3nc2o1 | 30.6% | 2.06 µM [rising, full curve] | 2.91 µM [rising, single point] |
| NC(=O)N(CCC(=O)O)c1ccccc1 | -31.3% | 4.61 µM [falling, full curve] | 1.3 µM [falling, full curve, poor fit] |
| CCOc1ccccc1-c1nc(-c2cc3ccc(C)cc3[nH]c2=O)no1 | -62.4% | 25.9 µM [falling, single point] | 18.4 µM [falling, single point] |
| CCc1nnc(NC(=O)CSc2nnc(COc3ccc(C#N)cc3)n2-c2ccccc2)s1 | -7.01% | 3.66 µM [rising, single point] |  |
| Cc1nn(CC(=O)NCCCN2C(C)CCCC2C)c(=O)c2cc3occc3n12 (centres undefined) | -7.96% |  | 0.92 µM [falling, full curve] |
| COC(=O)c1ccc2nc(NC(=O)CN3C(=O)CCC3=O)sc2c1 | -37.1% | 29.1 µM [falling, single point] | 32.6 µM [falling, partial curve] |
| COc1ccc(-c2cccc(NS(=O)(=O)c3cc([N+](=O)[O-])ccc3C)c2)nn1 |  |  | 1.46 µM [rising, partial curve] |
| C=CCOc1ccc(CN(C)CC(=O)Nc2ccccc2[N+](=O)[O-])cc1 | 32.9% | 29.1 µM [rising, partial curve, poor fit] |  |
| O=c1[nH]c(SCc2ccc(Cl)cc2)nc2[nH]ncc12 | 19% | 6.51 µM [rising, single point] |  |
| CC(C)c1nnc(NC(=O)c2nc(S(=O)(=O)Cc3ccc(F)cc3)ncc2Cl)s1 |  | 4.11 µM [falling, single point] | 6.51 µM [falling, single point] |

Copied from the list:
cell number change, CC(C)Oc1ccc(C(=O)Nc2ccc(N3CCCCC3)cc2)cc1 is entered as 4.31%
cell number change, Cc1csc2nc(CCNS(=O)(=O)c3ccc4c(c3)OCCO4)cn12 is entered as 3.55%
